Data as given in PubChem BioAssay AID602196 (INSERM, 2012)

- Test: 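Genes whose knock-down alters cisplatin killing of lung cancer cells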
- Cell system: human A549 lung cancer cells
- Reagent: siRNA pair against human genes
- Timing: 48 h transfection before cisplatin; time from cisplatin to read-out not stated
- Treatment: cisplatin at a dose killing half of control-siRNA cells; exact dose and duration not given
- Measurement: 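Cisplatin cell death as a shift from the 50% death seen with control siRNA; siRNAs toxic or growth-blocking alone scored 0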
- Scale: two-siRNA summed score (-2 to +2): higher = both siRNAs protect from cisplatin killing; -2 means both sensitise
- Rule for the call: 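Each siRNA scores 0 if harmful alone by LDH or WST-1, otherwise +1 if it reduces and -1 if it increases cisplatin killing; a gene is active when both siRNAs agree (sum +2 or -2)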
- Meaning of the calls: active = both siRNAs shift cisplatin killing the same way; inactive = no consistent shift, or siRNA harmful alone
Here is a random part of about 23,000 reagents tested. In the full data, 455 (2%) are marked active. 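Active includes both protection and sensitisation; some change values fall well beyond the stated -50 to +50 range.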 Unmarked entries are inactive. Not all columns of the deposit are shown. Not stated in the record: the amount of reagent.

The opening 2 entries as a preview:
LOC400818: two-siRNA summed score (-2 to +2) = 0
TP63: two-siRNA summed score (-2 to +2) = 0

Main list, from the first entry:
LOC400818: two-siRNA summed score (-2 to +2) = 0
TP63: two-siRNA summed score (-2 to +2) = 0
CYP1A2: two-siRNA summed score (-2 to +2) = 0
RALYL: two-siRNA summed score (-2 to +2) = 0
LOC442748: two-siRNA summed score (-2 to +2) = 1
KCTD7: two-siRNA summed score (-2 to +2) = 0
SLC30A1: two-siRNA summed score (-2 to +2) = 0
LOC400733: two-siRNA summed score (-2 to +2) = 0
LPAR5: two-siRNA summed score (-2 to +2) = -1
GNB4: two-siRNA summed score (-2 to +2) = -1
DUSP1: two-siRNA summed score (-2 to +2) = 0
G6PC3: two-siRNA summed score (-2 to +2) = 0
LOC389710: two-siRNA summed score (-2 to +2) = 1
LOC440417: two-siRNA summed score (-2 to +2) = 1
LOC200226: two-siRNA summed score (-2 to +2) = 0
LOC440408: two-siRNA summed score (-2 to +2) = 1
SPATA31G1: two-siRNA summed score (-2 to +2) = 1
AARS2: two-siRNA summed score (-2 to +2) = -1
LOC440422: two-siRNA summed score (-2 to +2) = 0
MPHOSPH10: two-siRNA summed score (-2 to +2) = 1
ZYX: two-siRNA summed score (-2 to +2) = 0
